Publication PMC6955894

Key:
VEGF-A165 (human) = assay: microarray TID (competition); details: 1 uM VEGF, 100 pM cV7t1-Cy5: no effect; 3' NH2 on strand 1, immobilized on aldehyde slide; TBSET: 10 mM Tris, 100 mM NaCl, 50 mM KCl, 0.05 mM EDTA, 0.05% Tween 20, pH 7; recombinant protein; label: 3' Cy5 on strand 2
alpha-chymotrypsin = assay: MST; details: hardly any binding, under 5 units, marginal above 3.75 uM, TBSET: 10 mM Tris, 100 mM NaCl, 50 mM KCl, 0.05 mM EDTA, 0.05% Tween 20, pH 7, MST with 25 nM aptamer, 20 min at 20 C, read at room temperature, commercial protein
lysozyme = assay: MST; details: slight signal at high lysozyme only, unspecific, TBSET: 10 mM Tris, 100 mM NaCl, 50 mM KCl, 0.05 mM EDTA, 0.05% Tween 20, pH 7, MST with 25 nM aptamer, 20 min at 20 C, read at room temperature, commercial protein
[1] = label: 3' Cy5, folded or branched DNA
[2] = label: 5' FITC, folded or branched DNA
[3] = label: 3' Cy5, single-stranded DNA

Sequence: TGTGGGGGTGGACGGGCCGGGTAGATAGTATGTGCATTC / CCGTCCACCCCC [V7t1-NH2/cV7t1-Cy5]
- binding result (VEGF-A165 (human)): no binding

Sequence: TGTGGGGGTGGACGGGCCGGGTAGATAGTATGTGCAATC [V7t1-Cy5]
- binding result (alpha-chymotrypsin; [1]): binds more weakly
- binding result (lysozyme; [1]): binds more weakly

Sequence: TGTGGGGGTGGACGGGCCGGGTAGATAGTATGTGCATTC [V7t1-FITC]
- binding result (alpha-chymotrypsin; [2]): binds more weakly
- binding result (lysozyme; [2]): binds more weakly

Sequence: ATACCAGTCTATTCAATTGGGCCCGTCCGTATGGTGGGTGTGCTGGCCAG [Del5-1-Cy5]
- binding result (alpha-chymotrypsin; [3]): binds more weakly
- binding result (lysozyme; [3]): binds more weakly

For some of these results: Negatives hold for the conditions tested. For some of these results: For at least one entry, the source does not settle the construct or the ends of the probe. For some of these results: A weaker result is weaker than the reference pair of the same experiment.
